Experimental data reported in publication PMC7817833.
No constants are given. Whether binding was seen depends on the method and setting. In cells and extracts the contact can be indirect. A yes stands for co-enrichment or nearness to the bait. Other partners may have been found.

Target: T1, Endonuclease G (ENDOG), overexpressed in L02 cells (human) (UniProt Q14249)
T1 sequence: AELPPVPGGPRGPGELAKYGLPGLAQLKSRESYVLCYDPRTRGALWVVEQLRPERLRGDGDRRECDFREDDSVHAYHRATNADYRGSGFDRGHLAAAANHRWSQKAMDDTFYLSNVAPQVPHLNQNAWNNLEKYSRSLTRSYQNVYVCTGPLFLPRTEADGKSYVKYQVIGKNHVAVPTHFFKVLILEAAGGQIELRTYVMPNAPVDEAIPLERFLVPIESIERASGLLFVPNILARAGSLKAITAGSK
Assay: affinity purification with mass spectrometry; immunoprecipitation of proteins associated with ENDOG; bands excised, trypsin digested, HPLC-MS

binding: binds
B1: 14-3-3γ, endogenous (protein, UniProt P61981 1-247)
chain: MVDREQLVQKARLAEQAERYDDMAAAMKNVTELNEPLSNEERNLLSVAYKNVVGARRSSWRVISSIEQKTSADGNEKKIEMVRAYREKIEKELEAVCQDVLSLLDNYLIKNCSETQYESKVFYLKMKGDYYRYLAEVATGEKRATVVESSEKAYSEAHEISKEHMQPTHPIRLGLALNYSVFYYEIQNAPEQACHLAKTAFDDAIAELDTLNEDSYKDSTLIMQLLRDNLTLWTSDQQDDDGGEGNN
